Several values for one entry are separate records, joined by “and”; a condition that tells them apart may be missing. Identical values can stand only once. The whole screen tested about 320,000 compounds, of which about 22,000 (6.9%) were called active. This list was built around the results that the source calls inconclusive (neither active nor inactive); the mix of calls is not that of the screen. The call rests on the fitted dose curve; in most records, active means well fitted inhibition curve with a large enough effect; inconclusive means small, poorly fitted or top-dose-only effect, or another doubt; inactive means no such curve, though single readings can be large or run the other way. Potencies beside an inconclusive call are fits to weak or partial responses and may not hold up.
Experiment: Primary qHTS for delayed death inhibitors of the malarial parasite plastid, 96 hour incubation
Conditions: P. falciparum luciferase reporter growth; series mostly up to 28.7 µM
How it was run: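 96 h incubation, 37 C, 5% CO2, of luciferase-reporter P. falciparum-infected RBCs (2% hematocrit, 0.05% parasitemia final) with test compounds; endpoint luminescence.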
For CCC(=O)N1CCN(c2ccccc2NC(=O)Cc2ccc(Cl)cc2)CC1, the Potency was “inactive”. With CCc1c(C#N)c(N)nc(SCC(=O)OCc2ccccc2)c1C#N the Potency was inconclusive: 18.5 µM [inhibitor, single point]. For Cc1ccc(C2=NN(C)c3nc4ccccc4n3C2)cc1, the Potency was inconclusive: 11.7 µM [inhibitor, single point]. With CCOC(=O)c1c(CSC(=N)N)n(-c2ccc(C)cc2)c2cc(Br)c(OC(C)=O)cc12 the Potency was active: 3.29 µM. For O=C(/C=C/c1ccc(Cl)cc1)NC(=S)Nc1ccccc1C(=O)O, the Potency was “inactive”. In the case of COc1cc(CNC(=O)CCCCCCC(C)C)ccc1O, the Potency is reported as “inactive”. For CN1CCc2nc(SCC(=O)Nc3ccc(OC(F)(F)F)cc3)c(C#N)c(-c3cccs3)c2C1, the Potency was “inactive”. For CN(/N=C/c1ccc(Br)o1)C1=NS(=O)(=O)c2ccccc21, the Potency was inconclusive: 8.28 µM [inhibitor, partial curve, poor fit]. In the case of Cc1cccn2c(=O)c(/C=C3\SC(=S)NC3=O)c(NCCCN3CCOCC3)nc12, the Potency is reported as inconclusive: 2.94 µM [inhibitor, full curve, poor fit]. With CCN(CC)CCNC(=O)c1ccc(-n2c(C)cc3c2CCCC3=O)cc1 the Potency was inconclusive: 18.5 µM [inhibitor, single point]. In the case of CCCCS(=O)(=O)C(=C1Nc2ccccc2N1)S(=O)(=O)CCCC, the Potency is reported as “inactive”. In the case of COc1cccc(/C=C/C(=O)OCC(=O)c2c[nH]c3ccccc23)c1, the Potency is reported as inconclusive: 6.57 µM [inhibitor, single point]. For COc1ccc(OC)c(NC(=O)C2CCCN(S(=O)(=O)c3c(C)noc3C)C2)c1 (centres undefined), the Potency was inconclusive: 18.5 µM [inhibitor, single point]. With Cc1cc(C)nc(S/C=C/C(=O)c2ccccc2)n1 the Potency was inconclusive: 13.1 µM [inhibitor, single point]. For CCOC(=O)c1c(/N=C/c2ccc(OC)cc2O)sc2c1CCN(C)C2, the Potency was active: 5.22 µM. In the case of Cc1oc(-c2ccc(Cl)cc2)nc1CN1CCCC(C(=O)NCCCN2CCCC2=O)C1 (centres undefined), the Potency is reported as inconclusive: 2.33 µM [inhibitor, partial curve, poor fit]. For O=C(CSc1ccccc1)N(c1ccc(Br)cc1)c1nccs1, the Potency was “inactive”. With Cc1cc(Nc2ccc([N+](=O)[O-])cc2)nc2ccccc12 the Potency was “inactive”. With COc1ccc(C(OC(=O)c2ccco2)C(=O)NC(C)(C)C)cc1 (centres undefined) the Potency was “inactive”. For Cc1ccc(S(=O)(=O)N2CC=C(C(=O)NCCC(C)C)CC2)cc1, the Potency was inconclusive: 13.1 µM [inhibitor, partial curve, poor fit]. With CCCN1CCN(CC(O)COC(c2ccc(OC)cc2)c2ccc(OC)cc2)CC1 (centres undefined) the Potency was “inactive”. For Cc1cc(=O)n2nc(N3CCCC(C(=O)NCc4ccco4)C3)sc2n1 (centres undefined), the Potency was inconclusive: 18.5 µM [inhibitor, single point]. For COc1ccc(OC)c(-c2cc(C3CCN(c4cc(Cl)nc(N)n4)CC3)[nH]n2)c1, the Potency was inconclusive: 0.928 µM [inhibitor, full curve]. For Cc1ccsc1C(C(=O)NC(C)(C)C)N(C(=O)c1csnn1)c1ccccc1 (centres undefined), the Potency was “inactive”. With Cc1ccc(/C=N/NC(=O)C2(C)CC2(Br)Br)cc1 (centres undefined) the Potency was inconclusive: 0.0026 µM [inhibitor, full curve, poor fit]. With N#C/C(=C\c1cccs1)C(=O)Nc1nccs1 the Potency was “inactive”. In the case of O=C(NCCc1nnc2ccc(NCc3ccccc3Cl)nn12)c1ccccc1, the Potency is reported as inconclusive: 2.62 µM [inhibitor, partial curve, poor fit]. In the case of CN1CCN(c2ccc(S(=O)(=O)N3CCCCC3)cc2NC(=O)CCc2ccccc2)CC1, the Potency is reported as inconclusive: 18.5 µM [inhibitor, single point]. With COC(=O)c1ccc(OCC(O)CN2CCC(C)CC2)cc1 (centres undefined) the Potency was inconclusive: 11.7 µM [inhibitor, single point]. For Cn1cnc2c(=O)[nH]cc([N+](=O)[O-])c21, the Potency was inconclusive: 2.08 µM [inhibitor, single point]. For CC(C)(C)C#CC(CCc1ccccc1)OS(N)(=O)=O (centres undefined), the Potency was inconclusive: 18.5 µM [inhibitor, single point]. In the case of CC(C)c1ccc(S(=O)(=O)N2CCN(CCC(=O)Nc3ccc(N(C)C)cc3)CC2)cc1, the Potency is reported as inconclusive: 0.0029 µM [inhibitor, full curve, poor fit]. With COc1cc(C2SC(C)C(=O)N2CCc2ccccc2)cc(OC)c1OC (centres undefined) the Potency was inconclusive: 18.5 µM [inhibitor, single point]. In the case of CCCc1[nH]nc2c1C(c1cc(OC)cc(OC)c1)C(C#N)=C(N)O2 (centres undefined), the Potency is reported as “inactive”. For Cc1ccc(-n2cccc2/C=N/n2cnnc2)cc1Cl, the Potency was inconclusive: 18.5 µM [inhibitor, single point]. With CC(C)NC(=O)c1onc(CSc2ccc(F)c(F)c2)c1C(=O)O the Potency was inconclusive: 0.0415 µM [inhibitor, full curve, poor fit]. For Cc1nn2c(=O)c3c4c(sc3nc2n1-c1ccccc1)COC(C)(C)C4, the Potency was inconclusive: 11.7 µM [inhibitor, single point]. In the case of O=C(Cc1nn[nH]n1)NCc1ccccc1Cl, the Potency is reported as inconclusive: 4.15 µM [inhibitor, partial curve, poor fit]. In the case of O=C(Nc1ccc(C(=O)O)cc1)/C(=C\C=C\c1ccccc1)NC(=O)c1ccccc1Cl, the Potency is reported as inconclusive: 13.1 µM [inhibitor, partial curve]. For O=[N+]([O-])c1ccc(O)c2ncccc12, the Potency was active: 9.28 µM and active: 9.53 µM. For O=C(NCCN1CCOCC1)c1ccc2c(c1)N(Cc1ccc(F)cc1)C(=O)c1ccccc1S2(=O)=O, the Potency was inconclusive: 8.28 µM [inhibitor, partial curve]. In the case of COc1ccc(Nc2cc(NCCCO)c([N+](=O)[O-])c3nonc23)cc1, the Potency is reported as inconclusive: 18.5 µM [inhibitor, single point]. In the case of CCCN(Cc1nnc(-c2ccccc2Cl)o1)C(=O)c1cccc(S(=O)(=O)N2CCOCC2)c1, the Potency is reported as inconclusive: 9.28 µM [inhibitor, partial curve, poor fit]. For NS(=O)(=O)c1ccc(NC(=S)NC(=O)C2CCCC2)cc1, the Potency was active: 1.85 µM.

From PubChem BioAssay AID504834 (National Center for Advancing Translational Sciences (NCATS), 2011)
Potency means the concentration at half of the fitted maximal effect.
